Laboratory results as given in CN112724255A.
These are yes or no findings as the source states them, for the method shown. Some binding calls cover weakened binding; strength is not graded here.

Sequences of proteins named here, by UniProt entry; tags and fusion partners are left off. Residues count along the entry.
UniProt P06731, residues 35-685: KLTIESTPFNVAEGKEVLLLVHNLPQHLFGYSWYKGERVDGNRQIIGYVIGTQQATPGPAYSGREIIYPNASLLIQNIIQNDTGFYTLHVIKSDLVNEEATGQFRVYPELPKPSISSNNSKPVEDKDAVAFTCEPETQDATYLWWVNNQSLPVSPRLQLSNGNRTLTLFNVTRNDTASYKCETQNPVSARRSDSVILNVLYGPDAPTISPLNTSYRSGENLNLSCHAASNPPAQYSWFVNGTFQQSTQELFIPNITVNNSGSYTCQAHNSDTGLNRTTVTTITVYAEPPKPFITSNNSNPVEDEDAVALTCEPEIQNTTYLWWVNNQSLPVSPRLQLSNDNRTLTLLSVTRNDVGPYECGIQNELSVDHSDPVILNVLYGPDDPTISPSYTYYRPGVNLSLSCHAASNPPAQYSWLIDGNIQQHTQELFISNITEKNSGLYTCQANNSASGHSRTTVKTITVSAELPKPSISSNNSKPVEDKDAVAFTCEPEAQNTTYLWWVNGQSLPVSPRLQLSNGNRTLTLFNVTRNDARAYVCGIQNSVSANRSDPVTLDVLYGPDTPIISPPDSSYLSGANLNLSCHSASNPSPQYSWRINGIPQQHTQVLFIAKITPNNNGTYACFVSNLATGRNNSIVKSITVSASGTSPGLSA

Target: 癌胚抗原 (CEA) 抗原 (UniProt P06731)
Assay: ELISA, CEA antigen coated, detection with anti-His-HRP

B1: 96ScFv 单链抗体 (靶向癌胚抗原的小分子抗体) (scFv)
scFv: MGQVRLRESGPSLVKPSQTLSLTCTVSGFSLTKYGVSWVRQAPGKALEWLGGVSSGALTAYNTALQSRLSVTRDTSKSQFSLSLSSVTTEDTAIYYCAKSVNGDSVPYGLDYWSPGLLITVSSGGGGSGGGGSGGGGSQAVLTQPSSVSGSLGQRVSITCSGSSSNIGGNAYVGWYQQVPGSAPRLLISATTDRASGIPDRFFGSRSGNTATLTISSLQAEDEADYYCASYQSTYSGVFGSGTMLAVLGTVAAPSVFHHHHHHHLGGC
How did the binding turn out when B1 was run?
Its binding is “binds”.
